Data as given in PubChem BioAssay AID493246 (Drosophila RNAi Screening Center, 2011)

Assay: 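Genome-wide search for dsRNAs that reduce cell number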 (primary screen)
Cell system: Drosophila Kc and S2R+ cells
Reagent: long dsRNA against Drosophila genes
Detection: 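Cell number per well after knock-down, printed as raw plate values; calls were based on per-plate z-scores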
Reading the numbers: Kc cell number and S2R+ cell number: higher = more cells remaining
Active means: 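Active when the per-plate z-score of cell number is 3 or more in the direction of fewer cells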
In all, the deposit lists about 21,000 reagents; this is an unselected part of those with a known target gene and a result. Over the whole deposit, 429 (2%) got an active call. 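Values are raw and not normalised between plates; calls rest on per-plate z-scores that were not deposited.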 Not stated in the record: the amount of reagent, the time to read-out.

Knock-down of CG33796 [DRSC09417] came out at: Kc cell number, rep 1 = 1.60e6; Kc cell number, rep 2 = 1.84e6; S2R+ cell number, rep 1 = 1.13e6; S2R+ cell number, rep 2 = 1.32e6; inactive. mirr (mirror) [DRSC11369] gave Kc cell number, rep 1 = 1.64e6; Kc cell number, rep 2 = 1.71e6; S2R+ cell number, rep 1 = 1.35e6; S2R+ cell number, rep 2 = 1.46e6; inactive. With knock-down of Git (G protein-coupled receptor kinase interacting ArfGAP) [DRSC06620] the results were Kc cell number, rep 1 = 1.35e6; Kc cell number, rep 2 = 1.40e6; S2R+ cell number, rep 1 = 1.14e6; S2R+ cell number, rep 2 = 1.20e6; inactive. After knock-down of CG13365 [DRSC17899], the screen gave Kc cell number, rep 1 = 1.53e6; Kc cell number, rep 2 = 1.54e6; S2R+ cell number, rep 1 = 9.95e5; S2R+ cell number, rep 2 = 1.12e6; inactive. CG33978 [DRSC17106] scored Kc cell number, rep 1 = 1.26e6; Kc cell number, rep 2 = 1.49e6; S2R+ cell number, rep 1 = 9.93e5; S2R+ cell number, rep 2 = 1.08e6; inactive. Gas41 [DRSC03156] showed Kc cell number, rep 1 = 1.21e6; Kc cell number, rep 2 = 1.32e6; S2R+ cell number, rep 1 = 5.73e5; S2R+ cell number, rep 2 = 7.63e5; inactive.

CG5937 [DRSC18392] gave Kc cell number, rep 1 = 1.65e6; Kc cell number, rep 2 = 1.62e6; S2R+ cell number, rep 1 = 1.02e6; S2R+ cell number, rep 2 = 1.08e6; inactive. CG10209 [DRSC05980] scored Kc cell number, rep 1 = 1.47e6; Kc cell number, rep 2 = 1.50e6; S2R+ cell number, rep 1 = 1.17e6; S2R+ cell number, rep 2 = 1.30e6; inactive. After knock-down of CG12155 [DRSC17826], the record shows Kc cell number, rep 1 = 6.02e5; S2R+ cell number, rep 1 = 7.47e5; inactive. Cp110 (Centriolar coiled coil protein 110kDa) [DRSC20630] gave Kc cell number, rep 1 = 1.49e6; Kc cell number, rep 2 = 1.54e6; S2R+ cell number, rep 1 = 1.06e6; S2R+ cell number, rep 2 = 1.21e6; inactive. After knock-down of CG5167 [DRSC15728], the record shows Kc cell number, rep 1 = 1.39e6; Kc cell number, rep 2 = 1.52e6; S2R+ cell number, rep 1 = 1.36e6; S2R+ cell number, rep 2 = 1.45e6; inactive. Against Oda (Ornithine decarboxylase antizyme) [DRSC07626], the values are Kc cell number, rep 1 = 1.53e6; Kc cell number, rep 2 = 1.50e6; S2R+ cell number, rep 1 = 1.10e6; S2R+ cell number, rep 2 = 1.23e6; inactive.

For CG30114 [DRSC05707], the entry reads Kc cell number, rep 1 = 5.69e5; S2R+ cell number, rep 1 = 6.77e5; inactive. With knock-down of Mrgn1 (Mahogunin ring finger 1) [DRSC20223] the results were Kc cell number, rep 1 = 7.04e5; S2R+ cell number, rep 1 = 9.25e5; inactive. After knock-down of CG30356 [DRSC05119] the results were Kc cell number, rep 1 = 1.35e6; Kc cell number, rep 2 = 1.45e6; S2R+ cell number, rep 1 = 9.75e5; S2R+ cell number, rep 2 = 1.12e6; inactive. Depletion of Dic4 [DRSC10317] gave: Kc cell number, rep 1 = 1.76e6; Kc cell number, rep 2 = 1.92e6; S2R+ cell number, rep 1 = 1.31e6; S2R+ cell number, rep 2 = 1.39e6; inactive. For CG5188 [DRSC02826] the deposit lists Kc cell number, rep 1 = 1.52e6; Kc cell number, rep 2 = 1.61e6; S2R+ cell number, rep 1 = 1.25e6; S2R+ cell number, rep 2 = 1.38e6; inactive. Silencing of fok (fledgling of Klp38B) [DRSC02103] came out at: Kc cell number, rep 1 = 1.70e6; Kc cell number, rep 2 = 1.74e6; S2R+ cell number, rep 1 = 1.17e6; S2R+ cell number, rep 2 = 2.13e5; inactive.

For Rok (Rho kinase) [DRSC20277] the deposit lists Kc cell number, rep 1 = 1.48e6; Kc cell number, rep 2 = 1.53e6; S2R+ cell number, rep 1 = 1.02e6; S2R+ cell number, rep 2 = 1.13e6; inactive. For CG6931 [DRSC10750] the deposit lists Kc cell number, rep 1 = 1.47e6; Kc cell number, rep 2 = 1.57e6; S2R+ cell number, rep 1 = 1.25e6; S2R+ cell number, rep 2 = 1.22e6; inactive. After knock-down of bnb (bangles and beads) [DRSC20314], the record shows Kc cell number, rep 1 = 1.59e6; Kc cell number, rep 2 = 1.61e6; S2R+ cell number, rep 1 = 1.13e6; S2R+ cell number, rep 2 = 1.23e6; inactive.
